Where a name gives a salt, the structure may show the parent alone. The list shows a part of the results. Part of the spread comes from offsets between plates or batches.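 Wild-type or misfolding-prone missense mutant B-domain-deleted factor VIII, fused to Gaussia luciferase, is stably expressed in HEK293 lines. Each score is (mean triplicate-well luminescence minus DMSO mean) divided by DMSO standard deviation. Hits score at least 2; lower scores could stem from decreased secretion or poorer cell viability.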
Each molecule was assayed on HEK293 WT BDD-FVIII-Gluc (assay: secreted FVIII-Gluc luciferase Z-score vs DMSO control; higher = more FVIII-Gluc secretion). Details: 5 µM; 24 h.

Compound | secreted FVIII-Gluc luciferase Z-score
Nc1ncn([C@@H]2O[C@H](CO)[C@@H](O)[C@H]2O)c(=O)n1 [Azacitidine (Vidaza)] | inactive: -5.49
C[C@@H](O)[C@H]1C(=O)N2C(C(=O)OCOC(=O)C(C)(C)C)=C(SC3CN(C4=NCCS4)C3)[C@H](C)[C@H]12 [Tebipenem pivoxil (L-084)] | inactive: -0.427
O=C(O)C(=O)O.[NH-]C1CCCCC1[NH-].[Pt+2] (stereo not given) [Oxaliplatin (Eloxatin)] | inactive: -3.36
COC(=O)C1=C(C#N)NC(C)=C(C(=O)OC(C)C)C1c1cccc([N+](=O)[O-])c1 (stereo not given) [Nilvadipine (ARC029)] | inactive: -1.34
Cc1ccc(Nc2nccc(N(C)c3ccc4c(C)n(C)nc4c3)n2)cc1S(N)(=O)=O [Pazopanib] | inactive: -7.01
Cc1ccccc1C(OCCN(C)C)c1ccccc1 (stereo not given) [Orphenadrine citrate (Norflex)] | inactive: -1.88
CN(C)CC/C=C1/c2ccccc2COc2ccc(CC(=O)O)cc21 [Olopatadine hydrochloride (Opatanol)] | active: 2.08
CCCCCCCCCCCCCCCC(=O)O[C@@H]1[C@@H](O)[C@@H](O)[C@@H]([C@H](NC(=O)[C@@H]2C[C@@H](CCC)CN2C)[C@H](C)Cl)O[C@@H]1SC [Clindamycin palmitate HCl] | inactive: -2.92
Cc1ccc(N(CC2=NCCN2)c2cccc(O)c2)cc1 [Phentolamine mesilate] | active: 2.04
CC(=O)OCC(=O)NCCCOc1cccc(CN2CCCCC2)c1 [Roxatidine acetate HCl] | inactive: 0.107
